Results taken from the supplement of paper PMC6078165.

Tested on: MDAMB231
Assay: relative JC-1 red fluorescence (viability) vs pre-drug, coculture with fibroblast (fraction); higher = more viable cancer cells
Method: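 JC-1 labelled TNBC cells cocultured 1:1 (1,500 cells each) with CellTrace Violet stained primary or stromal fibroblasts in 384-well plates in FluoroBrite medium, treated with one of 42 anticancer drugs at 0.1, 1, 10 or 100 uM. JC-1 red fluorescence (mitochondrial integrity in cancer cells only) was read by plate reader every 8 h for 72 h. Values are normalised to each well's pre-drug value. The stock of one drug was tenfold lower, so its dose labels may be too high.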

O=c1[nH]cc(F)c(=O)[nH]1 [Fluorouracil]
relative JC-1 red fluorescence
Conditions | 8 h | 16 h | 24 h | 32 h | 40 h | 48 h | 56 h | 64 h | 72 h
10 µM, coculture fibroblast: C12385 | 0.7843 ± 0.0017 | 0.756 ± 0.031 | 0.694 ± 0.017 | 0.652 ± 0.033 | 0.602 ± 0.035 | 0.585 ± 0.031 | 0.551 ± 0.031 | 0.55 ± 0.024 | 0.541 ± 0.026
10 µM, coculture fibroblast: H6013 | 0.9034 ± 0.001 | 0.82478 ± 0.00048 | 0.7809 ± 0.0049 | 0.7628 ± 0.0032 | 0.716 ± 0.0072 | 0.698 ± 0.029 | 0.677 ± 0.019 | 0.661 ± 0.022 | 0.637 ± 0.022
10 µM, coculture fibroblast: H6019 | 0.764 ± 0.023 | 0.679 ± 0.063 | 0.652 ± 0.062 | 0.624 ± 0.091 | 0.591 ± 0.082 | 0.567 ± 0.083 | 0.516 ± 0.06 | 0.509 ± 0.042 | 0.481 ± 0.043
10 µM, coculture fibroblast: H6076 | 0.902 ± 0.034 | 0.794 ± 0.041 | 0.727 ± 0.035 | 0.699 ± 0.043 | 0.662 ± 0.051 | 0.617 ± 0.064 | 0.595 ± 0.074 | 0.581 ± 0.079 | 0.564 ± 0.077
10 µM, coculture fibroblast: H6231 | 0.915 ± 0.012 | 0.805 ± 0.015 | 0.715 ± 0.013 | 0.66 ± 0.017 | 0.5975 ± 0.0024 | 0.5599 ± 0.00062 | 0.52032 ± 0.00014 | 0.499 ± 0.016 | 0.48 ± 0.017
10 µM, coculture fibroblast: HADF | 0.8936 ± 0.0046 | 0.8466 ± 0.0066 | 0.797 ± 0.021 | 0.758 ± 0.036 | 0.717 ± 0.039 | 0.665 ± 0.044 | 0.636 ± 0.035 | 0.624 ± 0.049 | 0.576 ± 0.054
10 µM, coculture fibroblast: HCFa | 0.902 ± 0.011 | 0.834 ± 0.025 | 0.782 ± 0.028 | 0.734 ± 0.03 | 0.683 ± 0.038 | 0.636 ± 0.034 | 0.615 ± 0.039 | 0.588 ± 0.048 | 0.552 ± 0.053
10 µM, coculture fibroblast: HCPF | 0.92 ± 0.037 | 0.831 ± 0.021 | 0.762 ± 0.018 | 0.737 ± 0.021 | 0.691 ± 0.045 | 0.658 ± 0.059 | 0.615 ± 0.071 | 0.587 ± 0.072 | 0.57 ± 0.088
10 µM, coculture fibroblast: HHSteC | 0.9134 ± 0.0063 | 0.833 ± 0.022 | 0.793 ± 0.025 | 0.753 ± 0.035 | 0.704 ± 0.045 | 0.68 ± 0.057 | 0.643 ± 0.048 | 0.615 ± 0.043 | 0.577 ± 0.043
10 µM, coculture fibroblast: HMF | 0.942 ± 0.044 | 0.853 ± 0.04 | 0.759 ± 0.037 | 0.711 ± 0.049 | 0.655 ± 0.056 | 0.603 ± 0.049 | 0.556 ± 0.05 | 0.526 ± 0.048 | 0.504 ± 0.035
10 µM, coculture fibroblast: HPFa | 0.9489 ± 0.0067 | 0.894 ± 0.016 | 0.837 ± 0.013 | 0.778 ± 0.013 | 0.749 ± 0.013 | 0.7104 ± 0.0037 | 0.66845 ± 0.00022 | 0.6418 ± 0.0059 | 0.594 ± 0.01
10 µM, coculture fibroblast: HUF | 0.8234 ± 0.0046 | 0.722 ± 0.015 | 0.739 ± 0.04 | 0.61 ± 0.015 | 0.541 ± 0.027 | 0.53 ± 0.037 | 0.483 ± 0.039 | 0.485 ± 0.053 | 0.475 ± 0.057
10 µM, coculture fibroblast: Hs5 | 0.883 ± 0.054 | 0.799 ± 0.046 | 0.752 ± 0.053 | 0.726 ± 0.067 | 0.697 ± 0.075 | 0.65 ± 0.084 | 0.625 ± 0.087 | 0.616 ± 0.082 | 0.609 ± 0.081
10 µM, coculture fibroblast: Hs27A | 0.906 ± 0.013 | 0.85 ± 0.013 | 0.8079 ± 0.0012 | 0.777 ± 0.013 | 0.732 ± 0.014 | 0.688 ± 0.014 | 0.68929 ± 0.00067 | 0.679 ± 0.011 | 0.638 ± 0.0094
10 µM, coculture fibroblast: Hs343T | 0.949 ± 0.068 | 0.868 ± 0.051 | 0.76 ± 0.019 | 0.705 ± 0.013 | 0.6369 ± 0.0047 | 0.576 ± 0.01 | 0.516 ± 0.021 | 0.488 ± 0.019 | 0.455 ± 0.022
10 µM, coculture fibroblast: WS1 | 0.7659 ± 0.0076 | 0.694 ± 0.0082 | 0.646 ± 0.021 | 0.576 ± 0.014 | 0.524 ± 0.0065 | 0.497 ± 0.01 | 0.452 ± 0.0085 | 0.447 ± 0.01 | 0.427 ± 0.0068
100 µM, coculture fibroblast: C12385 | 0.742 ± 0.012 | 0.709 ± 0.01 | 0.688 ± 0.051 | 0.644 ± 0.033 | 0.571 ± 0.049 | 0.56 ± 0.053 | 0.527 ± 0.052 | 0.532 ± 0.057 | 0.515 ± 0.056
100 µM, coculture fibroblast: H6013 | 0.901 ± 0.015 | 0.848 ± 0.014 | 0.812 ± 0.026 | 0.779 ± 0.02 | 0.737 ± 0.0095 | 0.7008 ± 0.0019 | 0.677 ± 0.0091 | 0.652 ± 0.0099 | 0.606 ± 0.0077
100 µM, coculture fibroblast: H6019 | 0.748 ± 0.012 | 0.681 ± 0.017 | 0.698 ± 0.06 | 0.647 ± 0.041 | 0.619 ± 0.052 | 0.608 ± 0.042 | 0.584 ± 0.051 | 0.592 ± 0.061 | 0.567 ± 0.055
100 µM, coculture fibroblast: H6076 | 0.899 ± 0.022 | 0.823 ± 0.052 | 0.797 ± 0.047 | 0.792 ± 0.032 | 0.764 ± 0.037 | 0.741 ± 0.042 | 0.744 ± 0.043 | 0.739 ± 0.04 | 0.725 ± 0.017
100 µM, coculture fibroblast: H6231 | 0.917 ± 0.011 | 0.793 ± 0.013 | 0.7138 ± 0.0055 | 0.6709 ± 0.00077 | 0.6141 ± 0.0017 | 0.5857 ± 0.0013 | 0.5453 ± 0.0026 | 0.5275 ± 0.0039 | 0.4992 ± 0.0021
100 µM, coculture fibroblast: HADF | 0.875 ± 0.0074 | 0.839 ± 0.016 | 0.8062 ± 0.0065 | 0.76769 ± 0.00051 | 0.732 ± 0.012 | 0.702 ± 0.013 | 0.688 ± 0.0078 | 0.6752 ± 0.0037 | 0.631 ± 0.013
100 µM, coculture fibroblast: HCFa | 0.89597 ± 0.00089 | 0.84 ± 0.046 | 0.8 ± 0.042 | 0.773 ± 0.051 | 0.735 ± 0.059 | 0.685 ± 0.077 | 0.659 ± 0.071 | 0.641 ± 0.075 | 0.607 ± 0.079
100 µM, coculture fibroblast: HCPF | 0.9 ± 0.019 | 0.778 ± 0.021 | 0.73 ± 0.02 | 0.7013 ± 0.0051 | 0.648 ± 0.0086 | 0.608 ± 0.015 | 0.575 ± 0.011 | 0.551 ± 0.0092 | 0.538 ± 0.0082
100 µM, coculture fibroblast: HHSteC | 0.902 ± 0.013 | 0.851 ± 0.0089 | 0.801 ± 0.034 | 0.761 ± 0.03 | 0.718 ± 0.037 | 0.69 ± 0.05 | 0.66 ± 0.06 | 0.639 ± 0.058 | 0.598 ± 0.058
100 µM, coculture fibroblast: HMF | 0.9283 ± 0.0052 | 0.8002 ± 0.0043 | 0.736 ± 0.036 | 0.707 ± 0.054 | 0.665 ± 0.069 | 0.642 ± 0.077 | 0.615 ± 0.1 | 0.608 ± 0.11 | 0.597 ± 0.12
100 µM, coculture fibroblast: HPFa | 0.9382 ± 0.0045 | 0.87 ± 0.015 | 0.812 ± 0.012 | 0.7729 ± 0.0052 | 0.743 ± 0.018 | 0.706 ± 0.022 | 0.656 ± 0.018 | 0.629 ± 0.018 | 0.592 ± 0.019
100 µM, coculture fibroblast: HUF | 0.834 ± 0.019 | 0.7218 ± 0.0039 | 0.7836 ± 0.0066 | 0.6524 ± 0.0029 | 0.6016 ± 0.0011 | 0.609 ± 0.016 | 0.5636 ± 0.0052 | 0.563 ± 0.006 | 0.55475 ± 0.00027
100 µM, coculture fibroblast: Hs5 | 0.873 ± 0.019 | 0.7868 ± 0.0059 | 0.7437 ± 0.0051 | 0.693 ± 0.016 | 0.658 ± 0.012 | 0.609 ± 0.008 | 0.5933 ± 0.0052 | 0.576 ± 0.006 | 0.5604 ± 0.00033
100 µM, coculture fibroblast: Hs27A | 0.89299 ± 3.5e-05 | 0.831 ± 0.019 | 0.812 ± 0.0096 | 0.787 ± 0.031 | 0.745 ± 0.034 | 0.687 ± 0.024 | 0.701 ± 0.027 | 0.691 ± 0.025 | 0.656 ± 0.022
100 µM, coculture fibroblast: Hs343T | 0.902 ± 0.033 | 0.817 ± 0.027 | 0.761 ± 0.027 | 0.728 ± 0.021 | 0.684 ± 0.015 | 0.646 ± 0.017 | 0.59565 ± 0.00024 | 0.5774 ± 0.0002 | 0.5584 ± 0.0021
100 µM, coculture fibroblast: WS1 | 0.696 ± 0.016 | 0.653 ± 0.016 | 0.615 ± 0.036 | 0.55 ± 0.016 | 0.511 ± 0.021 | 0.483 ± 0.019 | 0.442 ± 0.024 | 0.441 ± 0.027 | 0.427 ± 0.035

± gives the standard deviation of the averaged measurements. The reference is the same well before dosing, and untreated signal decays as well.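 Fibroblast labels denote human fibroblasts, mainly primary ones from uterus (C12385, HUF), lung (H6013), bone (Hs27A), adrenal (HADF) and skin (WS1), plus mammary HMF and breast cancer-associated Hs343T. Cancer cells are basal-like or mesenchymal-like triple-negative breast cancer lines. A hit is a response shift exceeding 3x replicate standard deviation. The tissue of the other fibroblasts is not given here.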
